Data on 1 substance can be found in paper PMC6901944.

Amino acid sequences for entries named in this document (tags omitted). A change or cut given only in a name is not applied to a line headed by its entry.
UniProt P51532: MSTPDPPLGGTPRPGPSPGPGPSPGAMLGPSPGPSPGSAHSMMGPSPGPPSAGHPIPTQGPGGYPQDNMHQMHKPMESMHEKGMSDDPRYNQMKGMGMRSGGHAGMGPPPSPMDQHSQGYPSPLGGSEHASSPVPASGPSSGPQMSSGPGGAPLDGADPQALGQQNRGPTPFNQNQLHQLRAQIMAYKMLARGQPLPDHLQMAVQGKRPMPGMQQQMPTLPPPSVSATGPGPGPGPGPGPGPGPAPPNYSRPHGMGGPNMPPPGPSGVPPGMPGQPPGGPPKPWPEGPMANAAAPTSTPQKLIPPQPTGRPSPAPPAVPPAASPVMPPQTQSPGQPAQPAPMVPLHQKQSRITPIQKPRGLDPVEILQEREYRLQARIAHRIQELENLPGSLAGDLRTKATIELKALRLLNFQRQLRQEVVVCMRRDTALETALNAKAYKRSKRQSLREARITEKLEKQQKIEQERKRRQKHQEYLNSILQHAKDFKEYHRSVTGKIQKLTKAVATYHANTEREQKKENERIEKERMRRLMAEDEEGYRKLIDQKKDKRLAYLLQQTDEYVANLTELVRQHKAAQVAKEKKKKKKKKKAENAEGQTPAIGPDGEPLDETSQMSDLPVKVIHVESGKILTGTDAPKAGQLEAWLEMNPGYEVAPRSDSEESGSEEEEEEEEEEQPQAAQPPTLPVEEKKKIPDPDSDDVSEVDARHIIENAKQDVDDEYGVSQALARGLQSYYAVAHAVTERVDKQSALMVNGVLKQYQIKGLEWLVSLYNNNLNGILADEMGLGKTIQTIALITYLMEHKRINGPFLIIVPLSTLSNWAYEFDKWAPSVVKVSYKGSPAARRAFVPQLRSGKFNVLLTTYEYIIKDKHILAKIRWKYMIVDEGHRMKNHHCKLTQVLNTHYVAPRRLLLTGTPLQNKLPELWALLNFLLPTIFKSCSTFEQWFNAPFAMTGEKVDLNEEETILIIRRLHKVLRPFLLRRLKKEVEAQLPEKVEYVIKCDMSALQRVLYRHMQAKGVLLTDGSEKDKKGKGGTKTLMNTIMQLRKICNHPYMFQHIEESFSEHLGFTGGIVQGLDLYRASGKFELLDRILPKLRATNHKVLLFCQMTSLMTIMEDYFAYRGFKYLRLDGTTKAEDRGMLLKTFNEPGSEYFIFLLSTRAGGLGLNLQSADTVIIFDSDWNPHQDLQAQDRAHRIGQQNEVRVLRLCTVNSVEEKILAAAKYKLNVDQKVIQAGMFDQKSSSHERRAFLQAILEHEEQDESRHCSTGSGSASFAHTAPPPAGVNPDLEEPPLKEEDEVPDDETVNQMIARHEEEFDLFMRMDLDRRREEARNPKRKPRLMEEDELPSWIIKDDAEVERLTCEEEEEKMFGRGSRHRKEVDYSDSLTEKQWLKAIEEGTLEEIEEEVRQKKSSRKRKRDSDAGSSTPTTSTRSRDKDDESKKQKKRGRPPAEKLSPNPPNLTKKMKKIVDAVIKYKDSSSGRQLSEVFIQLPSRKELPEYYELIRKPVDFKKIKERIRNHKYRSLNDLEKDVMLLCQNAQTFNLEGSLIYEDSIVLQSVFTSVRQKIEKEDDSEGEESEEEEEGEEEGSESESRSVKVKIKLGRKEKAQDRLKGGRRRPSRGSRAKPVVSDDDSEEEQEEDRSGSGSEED
UniProt P05412: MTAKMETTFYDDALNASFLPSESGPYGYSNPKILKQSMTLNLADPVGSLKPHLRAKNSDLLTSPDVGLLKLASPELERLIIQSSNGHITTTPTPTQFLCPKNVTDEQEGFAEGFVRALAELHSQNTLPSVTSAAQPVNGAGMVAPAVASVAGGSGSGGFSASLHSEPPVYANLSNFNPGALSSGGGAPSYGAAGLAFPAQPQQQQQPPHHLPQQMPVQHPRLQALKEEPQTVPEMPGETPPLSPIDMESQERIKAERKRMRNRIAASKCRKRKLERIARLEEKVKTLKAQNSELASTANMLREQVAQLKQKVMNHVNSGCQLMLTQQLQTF

Results are given in words; binding and its absence hold for the method and conditions named. In cells and extracts the contact can be indirect. Some entries that bind do so weakly or less than the wild type.

The target in this experiment is Brahma related gene (BRG1) (human (endogenous in HepG2)) (UniProt P51532). Description: co-IP; HepG2 cells treated with LPS plus palmitate; nuclear proteins extracted; anti-Brg1 or pre-immune IgG incubated with lysate overnight, absorbed on Protein A/G-plus agarose beads; Western blot. For orientation: A western blot detects proteins with antibodies after separation by electrophoresis.

For “AP-1 (from UniProt P05412 1-331; P01100 1-380) (complex)”, the binding entry is on record as “binds”.
